The other results are listed elsewhere or left out.

This test concerns T1, CTL2-GFP (C. trachomatis L2/434/Bu, GFP-expressing).
T1 construct: L2/434/Bu, GFP-expressing
Also noted: species or system HeLa; Intracellular C. trachomatis growth in HeLa cells, bulk GFP fluorescence relative to DMSO. Particulars: bulk GFP, single well; 28.5 h, 10 µM; inhibitor.
For `CC(C)OC(=O)c1cc2c(ccn2-c2ccc(F)cc2)n1CCC#N` [CBK123921], the “% of control remaining” value is recorded as 80.7452%.
Regarding `Cn1nc(C2CCCN(C(=O)C3CC3)C2)c2cccnc21` (stereo not drawn) [CBK282654], the “% of control remaining” value stood at 102.909%.
With `N=C1NC(=O)C(CC(=O)Nc2cccc([N+](=O)[O-])c2)S1` (stereo not drawn) [CBK263944], the “% of control remaining” value worked out at 100%.
Consider `O=C(O)COCc1nn(-c2ccc(Br)cc2)c2c1CCCC2` [CBK016404], for which the “% of control remaining” value was determined as 118.647%.
In the case of `Cc1ccc(-c2ccc(CCC(=O)O)n2NC(=O)c2ccc([N+](=O)[O-])cc2)cc1` [CBK264776], the “% of control remaining” value came to 120.587%.
As for `Cc1nn(C)cc1S(=O)(=O)N1CCCC(c2cccc(Cc3ccccc3Cl)n2)C1` (stereo not drawn) [CBK286127], the “% of control remaining” value worked out at 98.086%.
`CN(Cc1cc(Br)cs1)C(=O)CCN1C(=O)COc2ccccc21` [CBK298308]: the “% of control remaining” value was 114.464%.
Then `COc1ccc(OCc2nnn[nH]2)cc1` [CBK270000], with 128.557%; and `CN(C)CCN1C(=O)C(O)=C(C(=O)c2ccco2)C1c1ccc([N+](=O)[O-])cc1` (stereo not drawn) [CBK264486], with 78.2622%.
Regarding `COc1ccccc1-c1ccccc1CC1(C(=O)NCc2cccc(F)c2)CCOCC1` [CBK286426], the “% of control remaining” value is recorded as 70.76%.
`O=C1CC(C(=O)Nc2ccccc2)n2cnnc2N1` (stereo not drawn) [CBK287980]: the “% of control remaining” value came to 105.163%.
As to `O=C1N=C(NC2CCCCCC2)SC1Cc1ccc(O)cc1` (stereo not drawn) [CBK067868], the “% of control remaining” value is 104.308%.
On to `c1ccc(-c2nc3ccc(Cc4ccc5nc(-c6ccccn6)c(-c6ccccn6)nc5c4)cc3nc2-c2ccccn2)nc1` [CBK261975], for which the “% of control remaining” value was determined as 115.726%.
For the molecule `COc1ccc(OCC(=O)N/N=C\c2c(OC)ccc3ccccc23)c(Br)c1` [CBK261235], the “% of control remaining” value is given as 123.712%.
For the molecule `CC1(C)OCc2nc(C(O)C(C)(C)C)ccc2O1` (stereo not drawn) [CBK005386], the “% of control remaining” value is 156.063%.
On to `CC(=O)Nc1ccc(S(=O)(=O)NCCCc2ccccc2)cc1` [CBK265488], for which the “% of control remaining” value is listed as 100%.
For `O=C(Nc1nccs1)c1cccc(Cl)c1Cl` [CBK058011], the “% of control remaining” value is on record as 135.49%.
Turning to `Cc1nccn1CC1(O)CCN(Cc2c[nH]c3ccccc23)CC1` [CBK282671], the “% of control remaining” value is listed as 106.894%.
With `CC1CCCCN1CC(=O)Nc1ccccc1Oc1ccccc1` (stereo not drawn) [CBK023182C], the “% of control remaining” value came to 151.957%.
On to `O=c1n(-c2cccc(C(F)(F)F)c2)ccn1S(=O)(=O)c1ccc(Cl)c(Cl)c1` [CBK106579], for which the “% of control remaining” value was 103.321%.
In the case of `O=C(CCC1COc2ccccc2O1)Nc1ccc(C(=O)O)cc1` (stereo not drawn) [CBK269856], the “% of control remaining” value came out at 131.362%.
Regarding `O=c1c2nnc3ncnn3c2ccn1-c1ccccc1` [CBK288075], the “% of control remaining” value amounted to 88.276%.
Turning to `COC(=O)NC(O)C(=O)c1cccs1` (stereo not drawn) [CBK027755], the “% of control remaining” value is listed as 113.263%.
With `O=S(=O)(NCc1ccccc1)N1CCCCCC1` [CBK269569], the “% of control remaining” value is listed as 101.966%.
Then `CC1CCN(c2nc3nonc3nc2Nc2ccc3c(c2)OCO3)CC1` [CBK077551], with 135.003%.
For `O=C1CCCN1CCCNC(=O)C1(c2ccccc2)COc2ccccc21` (stereo not drawn) [CBK017653], the “% of control remaining” value was found to be 94.4912%.
As to `O=C(Nc1ccc(S(=O)(=O)N2CCCC2)cc1)C1CC(=O)N(Cc2ccco2)C1` (stereo not drawn) [CBK297500], the “% of control remaining” value stood at 114.35%.
Then `O=C(c1c(F)cccc1F)N1CCC(O)(c2ccccn2)CC1` [CBK283670], with 109.715%; and `Cc1nc(CN2CCC(O)(c3ccccc3F)CC2)c2ccccn12` [CBK282799], with 128.166%.
Then `Cc1sc(NC(=S)NC(=O)C2CCCCC2)c(C(N)=O)c1C` [CBK266273], with 172.275%.
Turning to `CCCNc1cncc(-c2cccc(O)c2)n1` [CBK065447], the “% of control remaining” value came to 134.828%.
On to `CC(C)Nc1cncc(OCCN2CCOCC2)n1` [CBK115599], for which the “% of control remaining” value is reported as 106.331%.
As to `Cn1nnnc1SCCNCc1ccc2c(c1)n(C)c(=O)n2C` [CBK270080C], the “% of control remaining” value turned out to be 136.587%.
As for `COc1ccc2[nH]c3c(c2c1)CCNC31CCN(C(=O)COc2ccccc2)C1` (stereo not drawn) [CBK061661], the “% of control remaining” value was found to be 112.579%.
Consider `Cn1c2ccccc2c2cc(C(O)(CC(=O)CC(O)(c3ccc4c(c3)c3ccccc3n4C)C(F)(F)F)C(F)(F)F)ccc21` (stereo not drawn) [CBK262254], for which the “% of control remaining” value worked out at 96.7722%.
With `COc1ccc(CNc2oc(-c3ccccc3)nc2S(=O)(=O)c2ccccc2)cc1` [CBK267669], the “% of control remaining” value came to 81.576%.
On to `O=C1N[C@H]2CCCN(C(=O)CCN3CCCC3)[C@H]2C/C=C/CCOc2ccccc21` [CBK292162], for which the “% of control remaining” value was 93.9615%.
Regarding `Cc1cc2c(cc3c(=O)n(CC(=O)NC4CCCC4)nc(C)n32)s1` [CBK284072], the “% of control remaining” value turned out to be 107.302%.
As to `CC(C)C(=O)Nc1ccc2c(c1)C(=O)N(CCC(=O)O)C2=O` [CBK286544], the “% of control remaining” value was 111.176%.
Then `COc1ccc(-c2cc(C(=O)NCCc3ccncc3)cnc2-c2cccc(C)c2)cn1` [CBK037489], with 96.9654%.
`COc1cc(CN(C)CCc2ccccn2)c([N+](=O)[O-])cc1OC` [CBK261737G]: the “% of control remaining” value came out at 100%.
Then `Cc1noc(C)c1C(=O)N1CCC[C@H](C(=O)c2ccc(F)cc2)C1` [CBK284334], with 93.7311%; and `N#Cc1c(-c2ccccc2)cc(-c2ccccc2)nc1SCC(=O)O` [CBK131684], with 124.807%.
In the case of `O=C(NCc1ccc2c(c1)OCO2)c1ccc2[nH]ccc2c1` [CBK161750], the “% of control remaining” value was determined as 162.397%.
As to `COc1cccc(-c2cc(C(=O)NCCCN3CCOCC3)c3ccccc3n2)c1` [CBK262630], the “% of control remaining” value is 118.37%.
As for `Cc1cc(C)n(CC(O)CN(Cc2ccco2)Cc2cccs2)n1` (stereo not drawn) [CBK282979], the “% of control remaining” value is 104.744%.
As for `Cc1c(/C=C2\SC(=S)NC2=O)c2ccccc2n1Cc1ccccc1Cl` [CBK263946], the “% of control remaining” value was determined as 115.306%.
With `O=C1CC(NCC2CCCO2)C(=O)N1c1ccc(N2C(=O)CC(NCC3CCCO3)C2=O)cc1` (stereo not drawn) [CBK263962], the “% of control remaining” value is on record as 100%.
Consider `CCCNCC(=O)N1CN(C(=O)c2ccc(C)cc2)C(C)(C)C1` [CBK089572C], for which the “% of control remaining” value is 111.375%.
Consider `COc1ccc(CN2CCC3(CCc4ccccc4C(=O)N3)C2)cc1` (stereo not drawn) [CBK283339], for which the “% of control remaining” value came to 107.499%.
For `CC(=O)Nc1ccc(OC(=O)CSc2nc(C)cc(C)n2)cc1` [CBK266707], the “% of control remaining” value is 183.824%.

The record behind these values is publication PMC12040169 (PLOS Biology, 2025).
